This is an account of results in paper PMC5325437.

Protein sequences, listed by entry. Tags and fused reporters are not part of them.
UniProt Q9UBN7: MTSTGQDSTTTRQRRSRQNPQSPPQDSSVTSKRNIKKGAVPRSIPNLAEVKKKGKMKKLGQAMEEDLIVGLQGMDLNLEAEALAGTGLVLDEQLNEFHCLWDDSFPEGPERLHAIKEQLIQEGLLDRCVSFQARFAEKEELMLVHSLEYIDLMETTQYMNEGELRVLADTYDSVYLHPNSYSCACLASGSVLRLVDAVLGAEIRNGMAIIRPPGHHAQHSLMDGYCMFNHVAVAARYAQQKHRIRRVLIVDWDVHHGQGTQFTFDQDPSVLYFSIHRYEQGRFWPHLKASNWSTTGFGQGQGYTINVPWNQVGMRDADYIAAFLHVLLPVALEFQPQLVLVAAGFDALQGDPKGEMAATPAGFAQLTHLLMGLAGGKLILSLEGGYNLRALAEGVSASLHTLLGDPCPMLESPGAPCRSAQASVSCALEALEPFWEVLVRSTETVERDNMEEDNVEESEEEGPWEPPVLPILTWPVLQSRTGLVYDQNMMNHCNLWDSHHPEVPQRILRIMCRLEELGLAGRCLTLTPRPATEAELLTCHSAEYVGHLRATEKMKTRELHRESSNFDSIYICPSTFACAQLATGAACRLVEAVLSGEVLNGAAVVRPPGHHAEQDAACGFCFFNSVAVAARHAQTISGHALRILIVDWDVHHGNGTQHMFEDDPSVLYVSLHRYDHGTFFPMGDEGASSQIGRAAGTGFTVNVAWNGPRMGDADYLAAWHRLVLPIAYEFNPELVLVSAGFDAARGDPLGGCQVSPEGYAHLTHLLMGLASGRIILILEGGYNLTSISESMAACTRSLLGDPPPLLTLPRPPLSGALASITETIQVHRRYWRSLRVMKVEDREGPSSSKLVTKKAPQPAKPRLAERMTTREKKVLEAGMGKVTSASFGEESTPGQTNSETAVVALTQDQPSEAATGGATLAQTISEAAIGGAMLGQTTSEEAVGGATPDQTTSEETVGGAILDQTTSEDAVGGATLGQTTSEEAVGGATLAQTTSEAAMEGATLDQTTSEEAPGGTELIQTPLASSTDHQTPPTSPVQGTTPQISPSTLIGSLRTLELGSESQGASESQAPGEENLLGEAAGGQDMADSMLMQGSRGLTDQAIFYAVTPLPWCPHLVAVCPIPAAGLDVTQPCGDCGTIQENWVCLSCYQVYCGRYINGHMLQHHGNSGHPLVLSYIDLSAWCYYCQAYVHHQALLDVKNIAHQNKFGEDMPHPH

No constants are given. Whether binding was seen depends on the method and setting. In cells and extracts the contact can be indirect. Some results given as binding are weak or reduced against the parent protein; the word gives no strength.

The target of this test is Histone deacetylase 6 (HDAC6) (human (endogenous in RASFs)) (UniProt Q9UBN7). Put plainly: proximity ligation; in situ proximity ligation assay (Duolink kit) in RASFs fixed with 4% paraformaldehyde and permeabilised with 0.1% Triton X-100; two primary antibodies (anti-p97, anti-HDAC6, anti-polyubiquitin K48) overnight at 4°C.

In the case of “Valosin containing protein (p97) (from UniProt P55072 1-806)”, the binding result is reported as “binds”.
